Among the data in PMC10301432, “Antiplasmodial, Trypanocidal, and Genotoxicity In Vitro Assessment of New Hybrid α,α-Difluorophenylacetamide-statin Derivatives” (Pharmaceuticals, 2023) are SI and CC50 values, retold here.

Data set [1] deals with P. falciparum parasites (W2 clone) chloroquine-resistant. As to the kind of experiment: Antiplasmodial activity, anti-HRPII assay. Conditions: LC50 (HepG2)/EC50 (P. falciparum). The class given is cell-based, Plasmodium falciparum. The source says: P. falciparum W2 clone was maintained in continuous culture as previously described. […] Prior to testing, the ring-stage parasites were synchronized using sorbitol.
The test quantification was read at 450 nm on a spectrophotometer (SpectraMax340PC384, Molecular Devices Sunnyvale, CA, USA), and the drug activity was expressed as the half-maximal inhibitory concentration (EC50) compared to the drug-free controls using the curve-fitting software Origin 8.0 (OriginLab Corporation, Northampton, MA, USA).

Data set [2] is described as follows: in vitro. The class given is cell-based. The conditions noted are these: human. As to the method: Human hepatocellular carcinoma (HepG2) and Chinese Hamster Ovary (CHO-K1) cells obtained from the American Type Culture Collection (Manassas, VA, USA) were cultured in Eagle’s medium (MEM, Gibco®, Waltham, MA, USA) containing 10% fetal bovine serum (FBS) plus 100 µg/mL streptomycin and 100 µg/mL penicillin at 37 °C in a 5% CO2 atmosphere. Logarithmic-phase cells were used in all the experiments.
Fresh HepG2 and CHO-K1 cells were seeded at a density of 1 × 10^4/well. […] Briefly, after treatment, the culture medium was replaced by 90 μL fresh culture medium and 10 μL WST-1 reagent and incubated at 37 °C and 5% CO2 for 3 h. The absorbance was then measured at 440 nm according to the kit protocol.

Data set [3] can be described thus: in vitro. It counts as cell-based. The conditions noted are these: mouse. The procedure:
Primary cultures of cardiac cells (CC) were obtained as reported in [50]. The cultures were sustained in Dulbecco’s modified Eagle’s medium (DMEM) supplemented with 10% horse serum, 5% fetal bovine serum (FBS), 2.5 mM CaCl2, 1 mM L-glutamine, and 2% chicken embryo extract. Cell cultures were maintained at 37 °C in an atmosphere of 5% CO2, and assays were run at least three times in triplicate.
(§1) Cardiac cell cultures were incubated for 24 h at 37 °C with different concentrations of the compounds (up to 200 µM) diluted in DMEM (without phenol red). Their morphology and spontaneous contractibility were evaluated by light microscopy and then the cellular viability was determined by the PrestoBlue® assay. For this colorimetric bioassay, PrestoBlue® (Invitrogen, Waltham, MA, USA) was added to each well (using a 10:1 medium/dye), the plate was further incubated for 24 h followed by optical density (OD) measurement performed at 570 and 600 nm, as recommended by the manufacturer. A similar protocol was used to evaluate L929 cell viability after 96 h of exposure to the compounds, using 10 μL AlamarBlue® (Invitrogen).

Data set [4] is described as follows: in vitro. Conditions: mouse. It counts as cell-based. As to the method: Mouse fibroblasts (L929) obtained from the American Type Culture Collection (Manassas, VA, USA) were cultured at 37 °C in RPMI-1640 medium (Gibco BRL) supplemented with 10% FBS and 2 mM glutamine, as reported in [49].
as §1
The source holds these as a separate data set.

Where only a bound is given, the exact number is not on record here.

For orientation: CC50 means the concentration giving 50% cytotoxicity. A higher CC50 goes with better tolerance by the cells. On to `CC(C)c1c(C(=O)Nc2ccccc2)c(-c2ccccc2)c(-c2ccc(F)cc2)n1CC[C@@H](O)C[C@@H](O)CC(=O)O` [AVA, atorvastatin, reference compound], for which the SI in data set [1] is reported as more than 98. In addition, the cytotoxic concentration (CC50) at 24 h is more than 1 mM in “in vitro [2]” and 361 ± 18.2 µM in “in vitro [3]”. Also, the CC50 at 96 h in the data set “in vitro [4]” turned out to be 76.1 ± 2.16 µM.
